The structures given here were assigned with low confidence; some may be wrong.
Biological target: human GPR40 receptor (Homo sapiens, UniProt O14842)
Assay: IP1 accumulation measurements using the IPOne assay system
Assay type: cell-based
Details: 1321N1 cells stably expressing human GPR40 receptor, stimulation 1 h at 37° C.
Experimental: IP1 accumulation measurements using the IPOne assay system—1321N1 cells stably expressing human GPR40 receptor (Euroscreen, Belgium) are seeded 24 h before the assay in white 384-well plates in culture medium containing 10% FCS, 1% Na-Pyruvate and 400 μg/mL G418. IPi is assayed according to the manufacturer's description (Cisbio Bioassays, France). In brief, the assay is started by substitution of the culture medium by stimulation buffer (Hepes 10 mM, CaCl2 1 mM, MgCl2 0.5 mM, KCl 4.2 mM, NaCl 146 mM, glucose 5.5 mM and LiCl 50 mM, pH 7.4). Cells are stimulated for 1 h at 37° C., 5% CO2 by addition of the compounds that are diluted in stimulation buffer containing LiCl. Assays are stopped by adding HTRF-conjugates (IP1-d2 and Anti-IP1 cryptate Tb) and lysis buffer, provided by the manufacturer. After an incubation time of 1 h at room temperature plates are measured using an EnVision™, Perkin Elmer. The obtained fluorescence ratios at 665/615 […] are then used to calculate the pEC50 values using Assay Explorer 3.3 Software (Accelrys, Inc.) by interpolation using an IP1 reference curve and subsequent sigmoidal curve fitting allowing for a variable hill slope.

By UniProt entry, the sequences of proteins in these tests, tags left out.
UniProt O14842, whole entry: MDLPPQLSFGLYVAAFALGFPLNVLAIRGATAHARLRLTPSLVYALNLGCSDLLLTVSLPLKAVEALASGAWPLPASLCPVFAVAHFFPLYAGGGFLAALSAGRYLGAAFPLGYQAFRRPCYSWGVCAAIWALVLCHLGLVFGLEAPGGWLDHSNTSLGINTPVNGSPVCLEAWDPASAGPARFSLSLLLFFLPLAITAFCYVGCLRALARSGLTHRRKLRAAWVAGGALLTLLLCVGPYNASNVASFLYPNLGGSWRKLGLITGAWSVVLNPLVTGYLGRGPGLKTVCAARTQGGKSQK

EC50: 26 nM
SMILES: Cc1cc(O)cc(C)c1-c1ccc(F)c(CNc2ccc(C3CC3C(=O)O)cn2)c1 (stereo not shown)
